Data from patent US6849598B1, “Therapeutic compositions comprising bactericidal/permeability-increasing (BPI) protein products” (XOMA, priority 1995, dated 2005).
For some assays here: At least one structure is not confirmed: it was looked up by name or label, or the drawing left a doubt. Some results were stated once for a whole list of compounds, not compound by compound.

B1: rBPI50: recombinant BPI holoprotein (protein, UniProt P17213 32-487, looked up)
Bactericidal …: VNPGVVVRISQKGLDYASQQGTAALQKELKRIKIPDYSDSFKIKHLGKGHYSFYSMDIREFQLPSSQISMVPNVGLKFSISNANIKISGKWKAQKRFLKMSGNFDLSIEGMSISADLKLGSNPTSGKPTITCSSCSSHINSVHVHISKSKVGWLIQLFHKKIESALRNKMNSQVCEKVTNSVSSELQPYFQTLPVMTKIDSVAGINYGLVAPPATTAETLDVQMKGEFYSENHHNPPPFAPPVMEFPAAHDRMVYLGLSDYFFNTAGLVYQEAGVLKMTLRDDMIPKESKFRLTTKFFGTFLPEVAKKFPNMKIQIHVSASTPPHLSVQPTGLTFYPAVDVQAFAVLPNSSLASLFLIGMHTTGSMEVSAESNRLVGELKLDRLLLELKHSNIGPFPVELLQDIMNYIVPILVLPRVNEKLQKGFPLPTPARVQLYNVVLQPHQNFLLFGADVVYK

Columns and labels:
[1] = test system: P. aeruginosa (ATCC 19660); assay: Antibiotic susceptibility (MIC, Microscan® MIC Plus Type 2 panel) with rBPI21/P123 and EDTA; format: cell-based; details: summary of Table 17
Procedure: In additional experiments, a BPI protein product, rBPI21, was formulated with an anti-bacterial activity enhancing poloxamer, specifically PLURONIC P123, and with various concentrations of EDTA, and was evaluated for its effect on the antibiotic susceptibility of a Pseudomonas aeruginosa (ATCC 19660). Antibiotic susceptibility was determined using Microscan® panel plates (Dade Microscan, West Sacramento, Calif.) that allow simultaneous determination of minimum inhibitory concentrations for a number of different antibiotics.
The antimicrobial susceptibility tests performed on the Microscan® panel plates are miniaturizations of the broth dilution susceptibility test. […]
The 25 ml of this inoculum containing rBPI21 was mixed by inversion and poured into a tray. […] The panel plates were then incubated at 35° C. for 15-24 hours and read visually for cell growth.
No growth was defined as a slight whiteness in the well or a clear broth. […] All wells were read against a black indirectly lighted background. Visual results of the biochemical reactions were read into a database for bacterial identification.

[2] = test system: A. baumannii; assay: Bactericidal activity with heat-treated PLURONIC P104 in serial 2-fold dilutions of serum; format: cell-based; details: formulated BPI protein product diluted with heat-treated PLURONIC P104 solution
Procedure: Additional experiments were performed to test therapeutic compositions, prepared by diluting a variety of formulated BPI protein products with heat-treated PLURONIC P104 solution, and tested against A. baumannii in serial 2-fold dilutions of serum.

Molecule | effect of EDTA added to the rBPI21/P123 formulation on susceptibility of the strain to the antibiotic [1] | serum concentrations at which bactericidal activity was observed [2]
CO[C@@]1(NC(=O)C2SC(=C(C(N)=O)C(=O)O)S2)C(=O)N2C(C(=O)O)=C(CSc3nnnn3C)CS[C@@H]21 (some centres unmarked) [Cefotetan] | reversing resistance | 
B1 |  | ≤ 1.6%
